From publication doi:10.1101/2024.07.01.601467
No constants are given. Whether binding was seen depends on the method and setting. In cells and extracts the contact can be indirect. Some entries that bind do so weakly or less than the wild type. For some of these results: Sequences can lack the tags named with a protein. Blank lines part the entries; values can stand above or below the molecule they belong to.

Chains of the proteins cited; added tags and fusions are not shown.
UniProt Q9BTU6: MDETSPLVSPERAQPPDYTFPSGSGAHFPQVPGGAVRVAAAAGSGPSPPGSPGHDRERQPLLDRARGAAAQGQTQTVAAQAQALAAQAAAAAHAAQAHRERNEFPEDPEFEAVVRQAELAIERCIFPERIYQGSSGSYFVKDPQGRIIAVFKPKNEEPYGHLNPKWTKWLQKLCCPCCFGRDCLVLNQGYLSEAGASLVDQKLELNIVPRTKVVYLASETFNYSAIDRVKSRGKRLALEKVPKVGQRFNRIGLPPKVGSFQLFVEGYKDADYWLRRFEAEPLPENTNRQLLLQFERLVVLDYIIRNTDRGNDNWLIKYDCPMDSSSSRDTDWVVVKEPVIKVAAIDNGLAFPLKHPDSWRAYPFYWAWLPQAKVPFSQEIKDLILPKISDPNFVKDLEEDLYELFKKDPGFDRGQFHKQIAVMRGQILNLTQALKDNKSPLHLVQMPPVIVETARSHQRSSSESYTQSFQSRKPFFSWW
UniProt Q8NFU5: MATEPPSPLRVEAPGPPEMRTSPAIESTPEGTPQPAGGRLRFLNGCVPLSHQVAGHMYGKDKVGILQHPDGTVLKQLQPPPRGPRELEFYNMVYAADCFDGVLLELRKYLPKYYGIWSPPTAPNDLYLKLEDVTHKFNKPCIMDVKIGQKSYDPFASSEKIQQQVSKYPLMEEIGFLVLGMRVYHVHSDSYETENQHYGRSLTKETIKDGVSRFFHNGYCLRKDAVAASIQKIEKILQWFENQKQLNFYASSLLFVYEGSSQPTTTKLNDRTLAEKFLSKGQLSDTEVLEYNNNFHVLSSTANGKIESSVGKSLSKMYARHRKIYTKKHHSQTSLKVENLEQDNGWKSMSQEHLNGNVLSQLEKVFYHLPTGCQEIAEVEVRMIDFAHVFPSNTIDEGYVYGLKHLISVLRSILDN
UniProt P04792: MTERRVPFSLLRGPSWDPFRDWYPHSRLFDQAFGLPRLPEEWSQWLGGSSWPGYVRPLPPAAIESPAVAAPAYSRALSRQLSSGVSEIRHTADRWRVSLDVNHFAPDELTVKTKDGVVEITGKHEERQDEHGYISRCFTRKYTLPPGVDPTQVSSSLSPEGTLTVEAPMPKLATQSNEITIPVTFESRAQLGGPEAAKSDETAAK
UniProt Q99755: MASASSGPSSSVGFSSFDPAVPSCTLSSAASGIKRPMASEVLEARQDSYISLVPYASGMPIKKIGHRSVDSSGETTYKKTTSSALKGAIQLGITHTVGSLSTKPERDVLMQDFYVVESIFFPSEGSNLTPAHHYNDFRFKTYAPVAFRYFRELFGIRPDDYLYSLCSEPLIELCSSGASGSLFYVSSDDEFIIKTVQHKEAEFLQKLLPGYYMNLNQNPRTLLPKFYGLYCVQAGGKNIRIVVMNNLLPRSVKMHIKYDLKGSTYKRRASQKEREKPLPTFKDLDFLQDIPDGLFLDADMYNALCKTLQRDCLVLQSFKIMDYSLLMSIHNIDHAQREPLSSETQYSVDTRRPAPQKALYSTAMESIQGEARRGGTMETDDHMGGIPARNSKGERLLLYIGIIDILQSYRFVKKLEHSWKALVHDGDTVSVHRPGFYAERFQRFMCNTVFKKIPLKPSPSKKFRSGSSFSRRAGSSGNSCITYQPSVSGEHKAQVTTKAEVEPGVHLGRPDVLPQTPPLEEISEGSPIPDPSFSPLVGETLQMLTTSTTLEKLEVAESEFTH

How the values were obtained:
Myc-Star-PAP = target: T1, Myc-Star-PAP (UniProt Q9H6E5); assay: proximity ligation
T1 sequence: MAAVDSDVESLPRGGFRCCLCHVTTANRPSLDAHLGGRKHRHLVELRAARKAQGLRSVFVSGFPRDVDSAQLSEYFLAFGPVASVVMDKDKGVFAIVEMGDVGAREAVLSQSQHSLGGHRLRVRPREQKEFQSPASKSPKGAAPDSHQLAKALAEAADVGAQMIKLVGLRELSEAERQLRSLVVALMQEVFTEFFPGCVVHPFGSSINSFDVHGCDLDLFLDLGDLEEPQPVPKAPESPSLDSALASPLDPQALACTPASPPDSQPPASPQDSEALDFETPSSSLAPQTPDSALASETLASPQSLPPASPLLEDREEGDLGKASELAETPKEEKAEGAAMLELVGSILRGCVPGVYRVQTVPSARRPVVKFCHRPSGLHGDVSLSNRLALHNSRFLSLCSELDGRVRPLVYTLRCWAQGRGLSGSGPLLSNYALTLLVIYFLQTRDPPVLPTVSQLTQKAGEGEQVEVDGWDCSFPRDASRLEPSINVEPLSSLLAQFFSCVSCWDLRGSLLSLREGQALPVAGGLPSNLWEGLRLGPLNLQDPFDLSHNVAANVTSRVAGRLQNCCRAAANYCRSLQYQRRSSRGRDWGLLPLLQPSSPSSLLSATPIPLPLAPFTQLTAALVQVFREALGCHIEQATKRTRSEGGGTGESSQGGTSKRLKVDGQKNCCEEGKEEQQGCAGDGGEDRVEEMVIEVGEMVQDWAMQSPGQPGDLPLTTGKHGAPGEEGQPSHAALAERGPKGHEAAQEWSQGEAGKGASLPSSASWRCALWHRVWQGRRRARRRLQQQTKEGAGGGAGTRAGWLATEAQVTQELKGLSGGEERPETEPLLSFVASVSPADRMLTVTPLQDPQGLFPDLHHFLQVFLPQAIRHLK

[1] = target: T2, speckle-targeted PIPKIα regulated-poly(A) polymerase (Star-PAP/TUT1), endogenous (human (endogenous in HeLa and MDA-MB-231)) (UniProt Q9H6E5); assay: proximity ligation
T2 sequence: T1 sequence

[2] = target: T2, speckle-targeted PIPKIα regulated-poly(A) polymerase (Star-PAP/TUT1), endogenous (human (endogenous in HeLa and MDA-MB-231)); assay: co-IP
[3] = target: T2, speckle-targeted PIPKIα regulated-poly(A) polymerase (Star-PAP/TUT1), endogenous (human (endogenous in HeLa and MDA-MB-231)); assay: proximity ligation; remark: listed apart in the source
[4] = target: T2, speckle-targeted PIPKIα regulated-poly(A) polymerase (Star-PAP/TUT1), endogenous (human (endogenous in HeLa and MDA-MB-231)); assay: co-IP; remark: listed apart in the source

binding [1]: binds | binding [2]: binds
Molecule: PI 4-kinase PI4KIIα, endogenous (from UniProt Q9BTU6 1-479) (enzyme)

binding [1]: binds | binding [2]: binds
Molecule: nuclear PI 3-kinase IPMK, endogenous (from UniProt Q8NFU5 1-416) (enzyme)

binding [1]: binds | binding [2]: binds
Molecule: small heat shock protein HSP27, endogenous (from UniProt P04792 1-205)

binding [3]: binds | binding [4]: binds
B2: PI transfer protein PITPβ, endogenous (protein, UniProt P48739 1-271)
chain: MVLIKEFRVVLPCSVQEYQVGQLYSVAEASKNETGGGEGIEVLKNEPYEKDGEKGQYTHKIYHLKSKVPAFVRMIAPEGSLVFHEKAWNAYPYCRTIVTNEYMKDDFFIKIETWHKPDLGTLENVHGLDPNTWKTVEIVHIDIADRSQVEPADYKADEDPALFQSVKTKRGPLGPNWKKELANSPDCPQMCAYKLVTIKFKWWGLQSKVENFIQKQEKRIFTNFHRQLFCWIDKWIDLTMEDIRRMEDETQKELETMRKRGSVRGTSAADV

The remaining lines, values behind:

Molecule: phosphatidylinositol 4-phosphate 5-kinase PIPKIα (PIP5K1A), endogenous (from UniProt Q99755 1-562) (enzyme)
binding (Myc-Star-PAP): binds | binding [1]: binds | binding [2]: binds

Molecule: Myc-IPMK (from UniProt Q8NFU5 1-416) (enzyme)
binding [1]: binds

B1: PI transfer protein PITPα, endogenous (protein, UniProt Q00169 1-270)
chain: MVLLKEYRVILPVSVDEYQVGQLYSVAEASKNETGGGEGVEVLVNEPYEKDGEKGQYTHKIYHLQSKVPTFVRMLAPEGALNIHEKAWNAYPYCRTVITNEYMKEDFLIKIETWHKPDLGTQENVHKLEPEAWKHVEAVYIDIADRSQVLSKDYKAEEDPAKFKSIKTGRGPLGPNWKQELVNQKDCPYMCAYKLVTVKFKWWGLQNKVENFIHKQERRLFTNFHRQLFCWLDKWVDLTMDDIRRMEEETKRQLDEMRQKDPVKGMTADD
binding [3]: binds | binding [4]: binds

B3: small heat shock protein αB-crystallin, endogenous (protein, UniProt P02511 1-175)
chain: MDIAIHHPWIRRPFFPFHSPSRLFDQFFGEHLLESDLFPTSTSLSPFYLRPPSFLRAPSWFDTGLSEMRLEKDRFSVNLDVKHFSPEELKVKVLGDVIEVHGKHEERQDEHGFISREFHRKYRIPADVDPLTITSSLSSDGVLTVNGPRKQVSGPERTIPITREEKPAVTAAPKK
binding [3]: binds | binding [4]: binds
